Publication PMC5430435
These are yes or no findings as the source states them, for the method shown. In cells and extracts the contact can be indirect. Some binding calls cover weakened binding; strength is not graded here.

Amino acid sequences for entries named in this document (tags omitted). Residues count along the entry.
UniProt P22888, residues 27-699: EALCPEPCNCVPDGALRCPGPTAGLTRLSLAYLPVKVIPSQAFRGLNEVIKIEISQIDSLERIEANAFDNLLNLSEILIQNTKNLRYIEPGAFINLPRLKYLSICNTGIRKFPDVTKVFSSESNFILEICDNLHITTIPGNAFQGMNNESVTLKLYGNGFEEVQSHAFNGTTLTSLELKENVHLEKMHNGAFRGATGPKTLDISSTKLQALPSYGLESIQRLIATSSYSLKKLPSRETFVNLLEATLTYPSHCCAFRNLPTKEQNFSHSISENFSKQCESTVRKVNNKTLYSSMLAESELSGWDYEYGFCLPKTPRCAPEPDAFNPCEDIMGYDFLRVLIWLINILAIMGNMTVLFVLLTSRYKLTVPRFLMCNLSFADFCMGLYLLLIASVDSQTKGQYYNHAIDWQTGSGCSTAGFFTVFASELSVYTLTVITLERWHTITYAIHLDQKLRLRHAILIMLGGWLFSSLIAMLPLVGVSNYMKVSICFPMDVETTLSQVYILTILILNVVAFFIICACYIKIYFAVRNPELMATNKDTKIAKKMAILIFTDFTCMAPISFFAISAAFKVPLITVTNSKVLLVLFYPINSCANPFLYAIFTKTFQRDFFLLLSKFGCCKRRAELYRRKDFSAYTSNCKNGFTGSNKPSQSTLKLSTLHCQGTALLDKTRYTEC
UniProt P32121: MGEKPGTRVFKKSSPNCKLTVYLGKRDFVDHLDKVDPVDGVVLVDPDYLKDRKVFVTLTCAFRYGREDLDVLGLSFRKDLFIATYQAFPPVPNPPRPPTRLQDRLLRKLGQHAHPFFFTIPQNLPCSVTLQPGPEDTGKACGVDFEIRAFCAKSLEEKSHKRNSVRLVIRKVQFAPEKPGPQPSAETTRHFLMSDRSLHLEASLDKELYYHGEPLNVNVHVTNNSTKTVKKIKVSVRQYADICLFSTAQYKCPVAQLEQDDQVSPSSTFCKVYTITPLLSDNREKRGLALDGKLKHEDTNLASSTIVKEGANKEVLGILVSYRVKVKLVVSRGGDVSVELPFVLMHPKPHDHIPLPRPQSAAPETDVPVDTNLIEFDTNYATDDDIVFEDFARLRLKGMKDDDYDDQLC

Biological target: hLH/CGR C-terminally fused to the BRET donor Rluc8 (human) (UniProt P22888)
Assay: FRET or BRET; living HEK293 cells co-expressing hLH/CGR-Rluc8 (donor) and yPET-β-arrestin 2 (acceptor); end point after 30 minutes at 37 °C with increasing concentrations of rhCG or rhLH in PBS 1X, 1 mM HEPES; Coelenterazine h

binding: binds
Substance: β-arrestin 2 N-terminally fused to the BRET acceptor yPET (from UniProt P32121 1-409)
